Test results taken from patent publication US7659073.

Target: mature PSA (prostate specific antigen) (human)
Assay: incubation with ACT for two hours at 37° C., HIC-HPLC profile

binding: binds
B1: α1-antichymotrypsin (ACT) (protein, UniProt P01011 24-423, looked up)
chain: HPNSPLDEENLTQENQDRGTHVDLGLASANVDFAFSLYKQLVLKAPDKNVIFSPLSISTALAFLSLGAHNTTLTEILKGLKFNLTETSEAEIHQSFQHLLRTLNQSSDELQLSMGNAMFVKEQLSLLDRFTEDAKRLYGSEAFATDFQDSAAAKKLINDYVKNGTRGKITDLIKDLDSQTMMVLVNYIFFKAKWEMPFDPQDTHQSRFYLSKKKWVMVPMMSLHHLTIPYFRDEELSCTVVELKYTGNASALFILPDQDKMEEVEAMLLPETLKRWRDSLEFREIGELYLPKFSISRDYNLNDILLQLGIEEAFTSKADLSGITGARNLAVSQVVHKAVLDVFEEGTEASAATAVKITLLSALVETRTIVRFNRPFLMIIVPTDTQNIFFMSKVTNPKQA

These are yes or no findings as the source states them, for the method shown. Binding can be weak; no strength is given.
